Reference: PMC12292255
These are yes or no findings as the source states them, for the method shown. In cells and extracts the contact can be indirect. Some binding calls cover weakened binding; strength is not graded here. For some assays here: Where a sequence is shown, tags or fusion partners need not be part of it.

Amino acid sequences for entries named in this document (tags omitted).
UniProt P35241: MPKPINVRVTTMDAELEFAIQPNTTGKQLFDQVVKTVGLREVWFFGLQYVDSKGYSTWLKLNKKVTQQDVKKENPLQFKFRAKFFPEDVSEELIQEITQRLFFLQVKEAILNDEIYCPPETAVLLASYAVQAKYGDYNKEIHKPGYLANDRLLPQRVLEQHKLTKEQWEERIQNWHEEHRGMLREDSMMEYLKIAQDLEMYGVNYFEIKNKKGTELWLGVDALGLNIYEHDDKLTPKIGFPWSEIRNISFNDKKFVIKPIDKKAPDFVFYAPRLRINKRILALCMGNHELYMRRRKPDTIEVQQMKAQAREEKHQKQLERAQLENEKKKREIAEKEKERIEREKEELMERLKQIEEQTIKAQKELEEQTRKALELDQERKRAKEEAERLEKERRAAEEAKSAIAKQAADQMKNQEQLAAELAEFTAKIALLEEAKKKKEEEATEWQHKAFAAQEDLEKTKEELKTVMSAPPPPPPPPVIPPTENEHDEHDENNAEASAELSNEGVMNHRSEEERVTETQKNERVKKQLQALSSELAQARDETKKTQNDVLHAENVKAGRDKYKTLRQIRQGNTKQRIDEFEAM

T1: N-OATP1B1-GFP (organic anion transporting polypeptide 1B1 with GFP at the amino terminus) (human) (UniProt Q9Y6L6)
T1 sequence: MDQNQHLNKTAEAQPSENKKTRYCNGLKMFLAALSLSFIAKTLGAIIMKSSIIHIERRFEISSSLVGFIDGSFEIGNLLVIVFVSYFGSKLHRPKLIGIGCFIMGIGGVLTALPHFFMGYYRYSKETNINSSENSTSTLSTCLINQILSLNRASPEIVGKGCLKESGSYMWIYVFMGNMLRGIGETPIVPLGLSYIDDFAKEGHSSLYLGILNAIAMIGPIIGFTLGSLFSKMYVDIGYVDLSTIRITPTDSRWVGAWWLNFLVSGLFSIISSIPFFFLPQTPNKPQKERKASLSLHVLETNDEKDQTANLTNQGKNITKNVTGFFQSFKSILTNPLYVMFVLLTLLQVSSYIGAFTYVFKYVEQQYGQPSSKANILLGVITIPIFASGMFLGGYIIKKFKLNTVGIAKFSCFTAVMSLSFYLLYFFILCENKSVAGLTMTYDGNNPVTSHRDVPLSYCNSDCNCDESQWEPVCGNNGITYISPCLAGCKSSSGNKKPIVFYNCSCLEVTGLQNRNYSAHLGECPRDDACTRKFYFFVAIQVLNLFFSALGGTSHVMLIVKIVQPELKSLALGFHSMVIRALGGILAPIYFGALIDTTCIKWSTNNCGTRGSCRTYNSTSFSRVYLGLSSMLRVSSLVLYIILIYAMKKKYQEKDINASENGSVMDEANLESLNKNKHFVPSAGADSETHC

T2: OATP1B1-3A (human) (UniProt Q9Y6L6)
T2 sequence: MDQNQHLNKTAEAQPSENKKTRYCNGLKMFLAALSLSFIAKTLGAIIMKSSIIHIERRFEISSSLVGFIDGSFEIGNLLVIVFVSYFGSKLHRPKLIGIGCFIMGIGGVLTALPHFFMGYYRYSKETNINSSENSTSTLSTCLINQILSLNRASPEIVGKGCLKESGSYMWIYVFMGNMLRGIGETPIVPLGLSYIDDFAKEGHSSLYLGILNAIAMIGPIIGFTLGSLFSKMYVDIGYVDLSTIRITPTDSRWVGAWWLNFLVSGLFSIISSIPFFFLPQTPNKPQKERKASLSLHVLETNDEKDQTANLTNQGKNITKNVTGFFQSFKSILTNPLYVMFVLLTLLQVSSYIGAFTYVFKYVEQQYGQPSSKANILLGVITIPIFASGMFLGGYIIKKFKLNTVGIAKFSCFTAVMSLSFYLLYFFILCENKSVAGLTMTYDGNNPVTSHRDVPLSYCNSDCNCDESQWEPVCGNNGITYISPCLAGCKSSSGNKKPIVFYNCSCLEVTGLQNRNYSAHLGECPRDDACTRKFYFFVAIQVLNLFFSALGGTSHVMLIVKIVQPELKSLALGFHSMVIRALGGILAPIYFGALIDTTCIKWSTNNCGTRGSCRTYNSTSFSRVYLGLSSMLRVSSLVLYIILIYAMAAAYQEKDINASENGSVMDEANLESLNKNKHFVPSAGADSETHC

T3: OATP1B1-3R (human) (UniProt Q9Y6L6)
T3 sequence: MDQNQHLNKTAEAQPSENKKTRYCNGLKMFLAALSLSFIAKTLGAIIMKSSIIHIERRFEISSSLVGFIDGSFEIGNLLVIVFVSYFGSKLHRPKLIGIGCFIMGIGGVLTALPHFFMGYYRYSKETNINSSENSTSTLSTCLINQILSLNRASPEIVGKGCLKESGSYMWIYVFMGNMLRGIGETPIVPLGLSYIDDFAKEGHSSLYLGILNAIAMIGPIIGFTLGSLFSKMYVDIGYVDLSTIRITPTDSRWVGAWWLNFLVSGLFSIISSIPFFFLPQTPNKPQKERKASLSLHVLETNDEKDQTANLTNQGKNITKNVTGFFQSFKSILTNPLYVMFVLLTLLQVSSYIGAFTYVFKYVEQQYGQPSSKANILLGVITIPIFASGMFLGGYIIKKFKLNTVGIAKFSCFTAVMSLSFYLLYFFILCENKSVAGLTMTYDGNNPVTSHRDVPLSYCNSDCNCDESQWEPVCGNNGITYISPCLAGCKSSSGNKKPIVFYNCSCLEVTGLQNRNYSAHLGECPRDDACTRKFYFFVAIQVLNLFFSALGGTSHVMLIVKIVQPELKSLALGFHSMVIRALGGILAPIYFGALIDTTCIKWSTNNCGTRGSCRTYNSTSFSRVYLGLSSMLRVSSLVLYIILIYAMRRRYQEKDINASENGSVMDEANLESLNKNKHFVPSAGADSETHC


Columns and labels:
Experiment in all cases: co-IP; lysates of cells expressing N-OATP1B1-GFP in 10 mM Tris/HCl pH 7.5, 150 mM NaCl, 1% NP-40, 2 mM EDTA, 3% glycerol; anti-GFP or anti-radixin antibody overnight at 4 °C, protein G agarose; immunoblot with radixin, phospho-ERM or GFP antibodies; in Figure 5A cells treated with PMA (10 μM) or Gö6983 (10 μM) for 30 min before lysis
[1] = molecular target: T1, N-OATP1B1-GFP (organic anion transporting polypeptide 1B1 with GFP at the amino terminus) (human)
[2] = molecular target: T2, OATP1B1-3A (human)
[3] = molecular target: T3, OATP1B1-3R (human)
[4] = molecular target: radixin (human (endogenous in HepG2)) (UniProt P35241)

Row | binding [1] | binding [2] | binding [3] | binding [4] | Molecule
1 | binds | – | – | – | phosphorylated radixin (Thr564) (from UniProt P35241 1-583)
2 | binds | binds | binds | – | radixin (from UniProt P35241 1-583)
3 | – | – | – | binds | N-OATP1B1-GFP (organic anion transporting polypeptide 1B1 with GFP at the amino terminus) (protein, UniProt Q9Y6L6 1-691) MDQNQHLNKTAEAQPSENKKTRYCNGLKMFLAALSLSFIAKTLGAIIMKSSIIHIERRFEISSSLVGFIDGSFEIGNLLVIVFVSYFGSKLHRPKLIGIGCFIMGIGGVLTALPHFFMGYYRYSKETNINSSENSTSTLSTCLINQILSLNRASPEIVGKGCLKESGSYMWIYVFMGNMLRGIGETPIVPLGLSYIDDFAKEGHSSLYLGILNAIAMIGPIIGFTLGSLFSKMYVDIGYVDLSTIRITPTDSRWVGAWWLNFLVSGLFSIISSIPFFFLPQTPNKPQKERKASLSLHVLETNDEKDQTANLTNQGKNITKNVTGFFQSFKSILTNPLYVMFVLLTLLQVSSYIGAFTYVFKYVEQQYGQPSSKANILLGVITIPIFASGMFLGGYIIKKFKLNTVGIAKFSCFTAVMSLSFYLLYFFILCENKSVAGLTMTYDGNNPVTSHRDVPLSYCNSDCNCDESQWEPVCGNNGITYISPCLAGCKSSSGNKKPIVFYNCSCLEVTGLQNRNYSAHLGECPRDDACTRKFYFFVAIQVLNLFFSALGGTSHVMLIVKIVQPELKSLALGFHSMVIRALGGILAPIYFGALIDTTCIKWSTNNCGTRGSCRTYNSTSFSRVYLGLSSMLRVSSLVLYIILIYAMKKKYQEKDINASENGSVMDEANLESLNKNKHFVPSAGADSETHC
